The campaign covered roughly 52,000 sequences. About 210 (0.4%) were called active.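 How the source made its calls: active means gene whose silencing raises cell survival under the drug, median off-target-corrected z-score across its silencing RNAs 2 or more; inactive means the rest.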 This is one part of the list.

In PubChem BioAssay AID1347423 (Functional Genomics Laboratory (NCATS/FGL), 2020) one finds z-score data, which are given here for 67 sequences.

This assay can be described thus: Resistance to Poly (ADP-Ribose) Polymerase inhibitor: Gene Identification via Genome-wide siRNA Screen. The settings on record: mouse BRCA2 R2336H ES cells, olaparib, CellTiter-Glo viability; hits give high values. The essentials:
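Mouse BRCA2 R2336H ES cells were reverse-transfected with siRNA (20 nM final), treated at 48 h with 500 nM olaparib, and read by CellTiter-Glo after 72 h. Scores: MAD-based z per siRNA, median per gene, seed off-target correction.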
On the technique in general: ATP-based viability assays read luminescence as a measure of living cells.
As to “GCCGGAUACCAACAUUCAATT against 5330431N24Rik”, the z-score is inactive: -0.901.

In the case of CCUUCCAUCCGAUUUGAAGTT against Ell, the z-score was inactive: 0.0059.

As for CCUAUCAGUCUAUCAUGUATT against Kdr, the z-score was inactive: 0.301.

Regarding GGUUCCUCUGUAAAAAGAUTT against Defb13, the z-score is inactive: -0.636.

Consider GGGCCACAUGUGUUCACUATT against Scotin, for which the z-score was inactive: -1.89.

On to GGUUGUAGACUUUAUUCAATT against Ppm1g, for which the z-score is inactive: 0.178.

In the case of GGUCUAUGACAAGAAUUUUTT against Rdh7, the z-score was inactive: -0.0367.

Consider “GGAAGAGUUGGAGAAAAUUTT against 4930549C01Rik”, for which the z-score is inactive: 1.51.

For the sequence GCUUGUUUUCCUUAAGGGATT against Crry, the z-score was inactive: -0.169.

Turning to GGUAACCUGUACAAUUGACTT against Serpinb1c, the z-score is inactive: -0.252.

In the case of GGAAAGCAUCAUUGAAAACTT against Dkk1, the z-score is inactive: 1.38.

GGAAUGCUAUUCUCGGACUTT against Lrg1: the z-score was inactive: -0.758.

Consider GCUACAAUAAUGGUCAGUCTT against Zfp36l3, for which the z-score was inactive: 0.793.

GGACUUUAGCAAAAUCGGCTT against LOC433481: the z-score was inactive: 0.86.

Regarding UGUAUCUGCUUACAGUAGCTT against Olfr523, the z-score was inactive: 0.317.

In the case of GGAUCCUCAACAAAGAAGATT against H2-DMb1, the z-score was inactive: -0.43.

For “GGAUCAUUCCAUUUCUGCCTT against G431001E03Rik”, the z-score was inactive: -0.212.

With CCAGUAUUUGAGAAUUCUGTT against LOC214403, the z-score is inactive: 0.1.

In the case of GGAUAUCGAUUUAAGAGACTT against Adam2, the z-score was inactive: 1.

Consider GGACCUGUUUUGGAAAUAUTT against Igj, for which the z-score was inactive: 0.803.

Consider GGUAACUUCUCAUCUCAACTT against MapKapk3, for which the z-score was inactive: 0.924.

Take GGGAGGGAAUAGUCAAAAATT against Timm17b: the z-score was inactive: 0.913.

Consider GCACAACCGAUUUUAUCACTT against BC005624, for which the z-score is inactive: 1.9.

GCACUAUACCGAAAAGCGCTT against Ppid: the z-score was inactive: 0.628.

Take “CCAAUUUAUACUUAGUGCCTT against 2210404G23Rik”: the z-score is inactive: -0.0819.

As for GGAUCUCAUGUUGAUAUAATT against Rpp40, the z-score was inactive: -1.39.

CGAAUACAUUAAGGAGAACTT against Relb: the z-score was inactive: 1.62.

With GAUUCUUUGUAGGGAGAUATT against Olfr26, the z-score is inactive: -0.295.

For the sequence GGAAAUAUAUCCCGGACAGTT against Sirt1, the z-score is inactive: -0.842.

Consider GCUUGUAGUUAAGGUGCACTT against Apbb1ip, for which the z-score is inactive: 0.00446.

GGACAAAAUCCUGCACAUUTT against Dnajb5: the z-score was inactive: -0.792.

In the case of CCACCUUUUUCUACAAAGUTT against Slc16a9, the z-score was inactive: 0.275.

With GGUACUCGGUUAUCAUGAATT against Olfr1403, the z-score was inactive: 1.39.

With “GGGAUACCAUCUUUAUGGCTT against A230074B11Rik”, the z-score is inactive: 0.0205.

Regarding “GGAAAUGUUAUCUUGGAAUTT against 2310008M20Rik”, the z-score was inactive: -0.752.

With GCAAUCACAAUCAGCUCCGTT against V1rg8, the z-score is inactive: 0.713.

Take GGUAAUUUUGGCUCUUGGATT against Eif4a2: the z-score is inactive: -0.424.

Turning to GGUCAUUUUUGAGGUGCUGTT against Grin2d, the z-score is inactive: 0.979.

For the sequence AGUGAAGUAUCCAGGGUGUTT against Tex18, the z-score is inactive: -1.43.

Consider GGAGAUCAUAUGAUUGAGATT against Plscr2, for which the z-score is inactive: 2.01.

With GGAGAUGAAAUCUACAAAUTT against Igfbp1, the z-score was inactive: -0.914.

In the case of GCACCCUAGAGGUAAAAGATT against Taf12, the z-score was inactive: -2.38.

For GCUGGUAGCCCGACAUAAUTT against Daam2, the z-score is inactive: -0.386.

On to CCUGUGUCAAUCCUGUGCATT against Ifitm7, for which the z-score is inactive: -0.932.

As for “GGCCAUCAGCAAAGGAUGCTT against C130074G19Rik”, the z-score is inactive: 0.44.

On to CGUGUUCUUAAUUUGCUUUTT against Rac1, for which the z-score is inactive: 0.907.

As for GGUAAUCUAUGAGACUCCATT against Gng5, the z-score was inactive: -0.318.

For the sequence “GGAUCCUGCUCAAAAAAGUTT against 6530401D17Rik”, the z-score was inactive: -0.321.

Consider GGAACUUCAUAAACACUUGTT against Oas3, for which the z-score is inactive: 0.178.

GGUGAACGAUGUCAACUUUTT against Dvl1: the z-score is inactive: -0.0182.

Turning to CGCAGUGACCUCAUUAACGTT against Klf7, the z-score is inactive: 1.

For CCCGUGAAAACAGUUGUCATT against Scly, the z-score was inactive: -1.02.

For the sequence GGAAGACGAAGAGCUGACATT against Psen1, the z-score is inactive: -0.177.

On to CCUUCUCCCAUAAGGCCAATT against Zfp1, for which the z-score is inactive: -0.27.

For the sequence GGAUUUUGUGAAUAAAUGCTT against Map2k1, the z-score is inactive: 0.346.

Consider GGUGAAAGGAGUCAGUCUATT against Agtrap, for which the z-score was inactive: -1.04.

Take “GGAAUUAUUCAGCAAGACUTT against 1700019I23Rik”: the z-score is inactive: 0.226.

Consider GGAUGUCAGUAUUUCCUGGTT against Glrx1, for which the z-score was inactive: 1.11.

For GGAGAUGAAAUUGUUUAUCTT against Bpgm, the z-score is inactive: 0.374.

In the case of GGCAAAGCAAGGUUGCUGATT against Ormdl3, the z-score is inactive: -0.0727.

GGCCACGGAGCUCUUUGUUTT against Chrac1: the z-score was inactive: -0.456.

As for GGAAGUAUGGGAUUAUGUGTT against Scpep1, the z-score was inactive: 0.115.

For CCAGUUCUCUCGAAGACUUTT against Hoxb1, the z-score is inactive: 0.692.

With GGUCCACAUUUUCGGCUAGTT against Kctd11, the z-score was inactive: -0.572.

Take GGAGUGCAAAAAGAGUUGCTT against Abce1: the z-score was inactive: -0.2.

As to GCAGCAUGCUGAAGAAAGATT against Jund1, the z-score is inactive: -0.68.

For GGGUUACAAGCUUAGCUCCTT against Pcdhga5, the z-score was inactive: -0.846.
